# Laboratory results as given in the supplement of paper PMC8728848.
# The other results are listed elsewhere or left out.
# Columns and labels:
# Test in all cases: glycan array binding signal (z-score within array); higher = stronger binding
# Conditions in all cases: glycan notation: IUPAC condensed, linker removed
# [1] = target: Neu5Ac(a2-3)Gal6S(b1-4)[Fuc(a1-3)]GlcNAc
# Outline: (§1)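 Glycan array data were curated from 3228 arrays in the Consortium for Functional Glycomics database and kept only where the protein sequence was available. Glycan names were converted to IUPAC-condensed notation, and columns mapping to the same glycan were averaged. The binding signal is a within-array Z-score, averaged across arrays of the same protein sequence at different concentrations or buffers and across linkers. Negative Z-scores can be read as non-binding.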
# [2] = target: Neu5Ac(a2-3)GalNAc
# Outline: as §1
# [3] = target: Neu5Ac(a2-3)GalNAc(b1-4)GlcNAc
# Outline: as §1
# [4] = target: Neu5Ac(a2-3)[GalNAc(b1-4)]Gal(b1-4)Glc
# Outline: as §1
# [5] = target: Neu5Ac(a2-3)[GalNAc(b1-4)]Gal(b1-4)GlcNAc
# Outline: as §1
# [6] = target: Neu5Ac(a2-3)[GalNAc(b1-4)]Gal(b1-4)GlcNAc(b1-3)GalNAc
# Outline: as §1
# [7] = target: Neu5Ac(a2-3)[Neu5Ac(a2-6)]GalNAc
# Outline: as §1
# [8] = target: Neu5Ac(a2-6)Gal
# Outline: as §1
# [9] = target: Neu5Ac(a2-6)Gal(b1-3)GlcNAc(b1-3)[Gal(b1-4)GlcNAc(b1-6)]Gal(b1-4)Glc
# Outline: as §1
# [10] = target: Neu5Ac(a2-6)Gal(b1-4)Glc
# Outline: as §1
# [11] = target: Neu5Ac(a2-6)Gal(b1-4)GlcNAc
# Outline: as §1
# [12] = target: Neu5Ac(a2-6)Gal(b1-4)GlcNAc(b1-2)Man
# Outline: as §1
# [13] = target: Neu5Ac(a2-6)Gal(b1-4)GlcNAc(b1-2)Man(a1-3)Man(b1-4)GlcNAc(b1-4)GlcNAc
# Outline: as §1
# [14] = target: Neu5Ac(a2-6)Gal(b1-4)GlcNAc(b1-2)Man(a1-3)[Gal(b1-4)GlcNAc(b1-2)Man(a1-6)]Man(b1-4)GlcNAc(b1-4)GlcNAc
# Outline: as §1
# [15] = target: Neu5Ac(a2-6)Gal(b1-4)GlcNAc(b1-2)Man(a1-3)[GlcNAc(b1-2)Man(a1-6)]Man(b1-4)GlcNAc(b1-4)GlcNAc
# Outline: as §1
# [16] = target: Neu5Ac(a2-6)Gal(b1-4)GlcNAc(b1-2)Man(a1-3)[GlcNAc(b1-4)][Neu5Ac(a2-6)Gal(b1-4)GlcNAc(b1-2)Man(a1-6)]Man(b1-4)GlcNAc(b1-4)GlcNAc
# Outline: as §1
# [17] = target: Neu5Ac(a2-6)Gal(b1-4)GlcNAc(b1-2)Man(a1-3)[Man(a1-6)]Man(b1-4)GlcNAc(b1-4)GlcNAc
# Outline: as §1
# [18] = target: Neu5Ac(a2-6)Gal(b1-4)GlcNAc(b1-2)Man(a1-3)[Neu5Ac(a2-3)Gal(b1-4)GlcNAc(b1-2)Man(a1-6)]Man(b1-4)GlcNAc(b1-4)GlcNAc
# Outline: as §1
# [19] = target: Neu5Ac(a2-6)Gal(b1-4)GlcNAc(b1-2)Man(a1-3)[Neu5Ac(a2-6)Gal(b1-4)GlcNAc(b1-2)Man(a1-6)]Man(b1-4)GlcNAc(b1-4)GlcNAc
# Outline: as §1
# [20] = target: Neu5Ac(a2-6)Gal(b1-4)GlcNAc(b1-2)Man(a1-3)[Neu5Ac(a2-6)Gal(b1-4)GlcNAc(b1-2)Man(a1-6)]Man(b1-4)GlcNAc(b1-4)[Fuc(a1-6)]GlcNAc
# Outline: as §1
# [21] = target: Neu5Ac(a2-6)Gal(b1-4)GlcNAc(b1-2)Man(a1-6)Man(b1-4)GlcNAc(b1-4)GlcNAc
# Outline: as §1
# [22] = target: Neu5Ac(a2-6)Gal(b1-4)GlcNAc(b1-2)Man(a1-6)[Gal(b1-4)GlcNAc(b1-2)Man(a1-3)]Man(b1-4)GlcNAc(b1-4)GlcNAc
# Outline: as §1
# [23] = target: Neu5Ac(a2-6)Gal(b1-4)GlcNAc(b1-2)Man(a1-6)[GlcNAc(b1-2)Man(a1-3)]Man(b1-4)GlcNAc(b1-4)GlcNAc
# Outline: as §1
# [24] = target: Neu5Ac(a2-6)Gal(b1-4)GlcNAc(b1-2)Man(a1-6)[Man(a1-3)]Man(b1-4)GlcNAc(b1-4)GlcNAc
# Outline: as §1
# [25] = target: Neu5Ac(a2-6)Gal(b1-4)GlcNAc(b1-2)[Neu5Ac(a2-6)Gal(b1-4)GlcNAc(b1-4)]Man(a1-3)[GlcNAc(b1-4)][Neu5Ac(a2-6)Gal(b1-4)GlcNAc(b1-2)[Neu5Ac(a2-6)Gal(b1-4)GlcNAc(b1-6)]Man(a1-6)]Man(b1-4)GlcNAc(b1-4)GlcNAc
# Outline: as §1
# [26] = target: Neu5Ac(a2-6)Gal(b1-4)GlcNAc(b1-2)[Neu5Ac(a2-6)Gal(b1-4)GlcNAc(b1-4)]Man(a1-3)[GlcNAc(b1-4)][Neu5Ac(a2-6)Gal(b1-4)GlcNAc(b1-4)Man(a1-6)]Man(b1-4)GlcNAc(b1-4)GlcNAc
# Outline: as §1
# [27] = target: Neu5Ac(a2-6)Gal(b1-4)GlcNAc(b1-2)[Neu5Ac(a2-6)Gal(b1-4)GlcNAc(b1-6)]Man(a1-6)[Neu5Ac(a2-6)Gal(b1-4)GlcNAc(b1-2)Man(a1-3)][GlcNAc(b1-4)]Man(b1-4)GlcNAc(b1-4)GlcNAc
# Outline: as §1
# [28] = target: Neu5Ac(a2-6)Gal(b1-4)GlcNAc(b1-3)Gal(b1-3)GlcNAc
# Outline: as §1
# [29] = target: Neu5Ac(a2-6)Gal(b1-4)GlcNAc(b1-3)Gal(b1-4)GlcNAc
# Outline: as §1
# [30] = target: Neu5Ac(a2-6)Gal(b1-4)GlcNAc(b1-3)Gal(b1-4)GlcNAc(b1-2)Man(a1-3)[Neu5Ac(a2-6)Gal(b1-4)GlcNAc(b1-3)Gal(b1-4)GlcNAc(b1-2)Man(a1-6)]GalNAc
# Outline: as §1
# [31] = target: Neu5Ac(a2-6)Gal(b1-4)GlcNAc(b1-3)Gal(b1-4)GlcNAc(b1-3)Gal(b1-4)GlcNAc
# Outline: as §1
# [32] = target: Neu5Ac(a2-6)Gal(b1-4)GlcNAc(b1-3)Gal(b1-4)GlcNAc(b1-3)Gal(b1-4)GlcNAc(b1-2)Man(a1-3)[Neu5Ac(a2-6)Gal(b1-4)GlcNAc(b1-3)Gal(b1-4)GlcNAc(b1-3)Gal(b1-4)GlcNAc(b1-2)Man(a1-6)]GalNAc
# Outline: as §1
# [33] = target: Neu5Ac(a2-6)Gal(b1-4)GlcNAc(b1-3)Gal(b1-4)GlcNAc(b1-3)GalNAc
# Outline: as §1
# [34] = target: Neu5Ac(a2-6)Gal(b1-4)GlcNAc(b1-3)Gal(b1-4)GlcNAc(b1-3)[Neu5Ac(a2-6)Gal(b1-4)GlcNAc(b1-3)Gal(b1-4)GlcNAc(b1-6)]GalNAc
# Outline: as §1
# [35] = target: Neu5Ac(a2-6)Gal(b1-4)GlcNAc(b1-3)Gal(b1-4)GlcNAc(b1-6)[Gal(b1-3)]GalNAc
# Outline: as §1
# [36] = target: Neu5Ac(a2-6)Gal(b1-4)GlcNAc(b1-3)Gal(b1-4)[Fuc(a1-3)]GlcNAc(b1-3)Gal(b1-4)[Fuc(a1-3)]GlcNAc
# Outline: as §1
# [37] = target: Neu5Ac(a2-6)Gal(b1-4)GlcNAc(b1-3)GalNAc
# Outline: as §1
binder,measurement,setting,value
Epa2 (Candida glabrata) (protein) MGSSHHHHHHSSGLVPRGSHMASSKDPTSFPMGCSPQVLKTQPGLAVKLYSYGHPVPGCAYNTYQYPDFPRSGYKKERKLADITGVNGRIDIDLKPNDPCRVLSGNLPSNYNYQNTLTYTNFTMILYGYFQPKVTGYHTFNLEADDLLFMNLGAGNAFDCCRAESTLDNFGNYQSYSIWGTDKATADLTVFLVSGIYYPIRLFYVNRDNNAVLDFSFSTEFNKEIIHDFTSYFFSASDEEQCPGNI,glycan array binding signal (z-score),[1],-0.905
same,glycan array binding signal (z-score),[2],-0.09
same,glycan array binding signal (z-score),[3],-0.275
same,glycan array binding signal (z-score),[4],-0.476
same,glycan array binding signal (z-score),[5],-0.651
same,glycan array binding signal (z-score),[6],0.939
same,glycan array binding signal (z-score),[7],0.098
same,glycan array binding signal (z-score),[8],0.28
same,glycan array binding signal (z-score),[9],-0.53
same,glycan array binding signal (z-score),[10],-0.322
same,glycan array binding signal (z-score),[11],-0.329
same,glycan array binding signal (z-score),[12],-0.313
same,glycan array binding signal (z-score),[13],0.572
same,glycan array binding signal (z-score),[14],-0.418
same,glycan array binding signal (z-score),[15],-0.681
same,glycan array binding signal (z-score),[16],-0.794
same,glycan array binding signal (z-score),[17],-0.137
same,glycan array binding signal (z-score),[18],-0.821
same,glycan array binding signal (z-score),[19],0.254
same,glycan array binding signal (z-score),[20],-0.149
same,glycan array binding signal (z-score),[21],-0.441
same,glycan array binding signal (z-score),[22],-0.658
same,glycan array binding signal (z-score),[23],0.411
same,glycan array binding signal (z-score),[24],-0.983
same,glycan array binding signal (z-score),[25],-0.734
same,glycan array binding signal (z-score),[26],0.181
same,glycan array binding signal (z-score),[27],-0.44
same,glycan array binding signal (z-score),[28],-0.15
same,glycan array binding signal (z-score),[29],-0.467
same,glycan array binding signal (z-score),[30],0.897
same,glycan array binding signal (z-score),[31],0.69
same,glycan array binding signal (z-score),[32],1.69
same,glycan array binding signal (z-score),[33],0.583
same,glycan array binding signal (z-score),[34],1.24
same,glycan array binding signal (z-score),[35],0.139
same,glycan array binding signal (z-score),[36],-0.274
same,glycan array binding signal (z-score),[37],-0.195

# Two records drawn at random from those above:
binder,measurement,setting,value
Epa2 (Candida glabrata) (protein) MGSSHHHHHHSSGLVPRGSHMASSKDPTSFPMGCSPQVLKTQPGLAVKLYSYGHPVPGCAYNTYQYPDFPRSGYKKERKLADITGVNGRIDIDLKPNDPCRVLSGNLPSNYNYQNTLTYTNFTMILYGYFQPKVTGYHTFNLEADDLLFMNLGAGNAFDCCRAESTLDNFGNYQSYSIWGTDKATADLTVFLVSGIYYPIRLFYVNRDNNAVLDFSFSTEFNKEIIHDFTSYFFSASDEEQCPGNI,glycan array binding signal (z-score),[15],-0.681
same,glycan array binding signal (z-score),[6],0.939
